Sequences of proteins named here, by UniProt entry; tags and fusion partners are left off. Residues count along the entry.
UniProt Q03265, residues 44-553: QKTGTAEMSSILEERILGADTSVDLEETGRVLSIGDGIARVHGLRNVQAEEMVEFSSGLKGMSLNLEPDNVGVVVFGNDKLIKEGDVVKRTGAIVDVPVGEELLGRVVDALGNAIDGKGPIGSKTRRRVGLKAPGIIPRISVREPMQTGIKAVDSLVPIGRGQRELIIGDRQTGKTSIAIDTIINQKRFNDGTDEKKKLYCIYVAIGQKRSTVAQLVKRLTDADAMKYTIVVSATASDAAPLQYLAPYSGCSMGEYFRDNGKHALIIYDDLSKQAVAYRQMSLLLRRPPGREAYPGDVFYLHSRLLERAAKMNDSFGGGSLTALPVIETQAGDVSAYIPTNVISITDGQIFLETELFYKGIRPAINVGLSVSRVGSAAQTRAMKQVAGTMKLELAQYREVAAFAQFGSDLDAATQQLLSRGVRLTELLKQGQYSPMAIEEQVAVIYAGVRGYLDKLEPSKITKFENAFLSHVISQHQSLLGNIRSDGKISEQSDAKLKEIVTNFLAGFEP
UniProt Q99KR7, residues 30-206: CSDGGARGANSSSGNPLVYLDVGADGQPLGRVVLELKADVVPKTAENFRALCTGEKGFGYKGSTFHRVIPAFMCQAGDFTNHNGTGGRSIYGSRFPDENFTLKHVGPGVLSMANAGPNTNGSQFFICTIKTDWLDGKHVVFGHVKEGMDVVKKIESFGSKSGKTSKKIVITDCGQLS
UniProt P38647, residues 47-679: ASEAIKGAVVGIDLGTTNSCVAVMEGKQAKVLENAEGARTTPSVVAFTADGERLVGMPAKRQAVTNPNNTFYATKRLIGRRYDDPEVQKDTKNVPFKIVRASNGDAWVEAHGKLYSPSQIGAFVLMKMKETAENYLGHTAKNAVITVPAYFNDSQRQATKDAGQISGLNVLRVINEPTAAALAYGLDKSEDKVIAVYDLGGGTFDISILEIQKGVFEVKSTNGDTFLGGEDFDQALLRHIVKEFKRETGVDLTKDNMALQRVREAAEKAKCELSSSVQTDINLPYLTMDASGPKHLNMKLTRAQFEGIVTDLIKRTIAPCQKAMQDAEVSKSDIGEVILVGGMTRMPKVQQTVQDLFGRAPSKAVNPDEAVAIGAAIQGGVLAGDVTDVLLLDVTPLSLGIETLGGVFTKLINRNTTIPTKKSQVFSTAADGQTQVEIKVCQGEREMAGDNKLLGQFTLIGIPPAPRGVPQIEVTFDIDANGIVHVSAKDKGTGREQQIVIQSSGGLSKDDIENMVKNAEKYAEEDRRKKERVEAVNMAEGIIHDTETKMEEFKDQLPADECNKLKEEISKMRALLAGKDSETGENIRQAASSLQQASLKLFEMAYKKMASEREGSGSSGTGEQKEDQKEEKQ

In PMC10135852:

Target: T1, Mitochondrial inner membrane protein (Mitofilin/Mic60) (mouse (endogenous in mouse cardiac mitochondria)) (UniProt Q8CAQ8)
T1 sequence: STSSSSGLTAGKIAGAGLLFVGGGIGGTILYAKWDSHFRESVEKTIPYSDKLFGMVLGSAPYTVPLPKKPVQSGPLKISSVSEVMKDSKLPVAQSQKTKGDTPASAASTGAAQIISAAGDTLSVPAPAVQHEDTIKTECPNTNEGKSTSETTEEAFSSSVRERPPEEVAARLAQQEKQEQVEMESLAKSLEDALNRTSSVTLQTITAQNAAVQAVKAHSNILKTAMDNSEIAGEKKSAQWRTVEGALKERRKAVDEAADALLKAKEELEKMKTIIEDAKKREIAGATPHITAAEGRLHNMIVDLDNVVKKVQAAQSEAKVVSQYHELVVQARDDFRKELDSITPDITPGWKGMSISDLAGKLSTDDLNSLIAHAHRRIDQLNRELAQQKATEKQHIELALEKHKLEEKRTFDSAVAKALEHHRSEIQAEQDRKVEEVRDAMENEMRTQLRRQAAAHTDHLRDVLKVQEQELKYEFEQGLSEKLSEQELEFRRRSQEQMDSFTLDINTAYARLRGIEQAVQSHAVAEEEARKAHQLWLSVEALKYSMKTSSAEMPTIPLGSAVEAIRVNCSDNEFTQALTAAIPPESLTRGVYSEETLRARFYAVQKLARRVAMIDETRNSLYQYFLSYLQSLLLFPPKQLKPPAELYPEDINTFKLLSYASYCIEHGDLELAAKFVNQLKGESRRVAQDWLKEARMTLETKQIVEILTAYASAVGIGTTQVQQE
Experiment: affinity purification with mass spectrometry; mitochondrial proteins from normal wild-type mouse hearts immunoprecipitated with an anti-Mitofilin antibody; eluate separated by SDS-PAGE, gel slices digested with trypsin, HPLC-ESI-MS/MS (Orbitrap Velos Pro); Mascot search of UniProt_mouse, Scaffold

“ATP synthase subunit α (from UniProt Q03265 44-553)” was tested. Which binding did it give?
The binding was “binds”.

With VDAC1 (from UniProt Q60932-2) as the substance, how does the binding read?
Its binding is “binds”.

With “Cyclophilin D (Ppif) (from UniProt Q99KR7 30-206)” as the substance, how does the binding read?
The binding was “binds”.

For “glucose-regulated protein 75 (GRP75) (from UniProt P38647 47-679)”, which binding is on record?
Its binding is “binds”.

No constants are given. Whether binding was seen depends on the method and setting. In cells and extracts the contact can be indirect. These calls come from enrichment with a bait or labelling near it, and not all partners need be listed.
